# Assay results

Source: PubChem BioAssay AID1159506 (NCATS, 2015).

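Genome-wide siRNA knockdown in TC32 Ewing sarcoma cells, comparing luciferase light from an NR0B1-promoter reporter with a CMV-promoter reporter 48 hours after transfection.
Each siRNA was applied at 20 nM.
A z-score of the log NR0B1-over-CMV signal, less the median of siRNAs with the same seed; more negative means a stronger specific loss of the NR0B1 reporter.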

The strongest results of the screen are mostly left out here.
Sequences are the guide (antisense) strand, without overhang.

Sequence,target gene,seed-corrected z-score
ACCAAUAUAAUGUCUGAUG,EIF1AY,0.05001
UCACUUGUGAUACAGGUCU,SIGLEC8,-0.1992
AAACUGGUAGCUCUGAUUC,OR56A5,0.3044
AACAGUCCAACCAACAACC,GDE1,0.2828
AUCGAUACAGCCUCUGCAC,IL17C,0.222
AACCUUAUGGAGUUCAGCC,HNRNPKP3,-0.767
UUCUCAAGGACCUUAAUCA,LINC00521,-0.1456
AUAGUGACCACGGGCAUAG,TUBA4A,-0.4497
UAUAGACUAUUUUCUGAGC,RGS13,0.02293
UUCCACAUCAUAGUCUCUG,UNC50,0.3301
UUUGAUACAGUACAUUGUC,HDX,0.5879
UGUAUACUCCACUAUGACC,PELI3,-0.4557
UCCACUCUGACUAUGGUCC,IFNB1,0.4035
UCUGAAUCCAGUAAAGACC,SERINC3,0.02531
UUAUUGUUGAUGAAGUAGC,JAM3,0.1154
UAAAAGACACCAACUCUGC,PCID2,1.422
UUUGCUUUUGUAGAAUUGG,SRD5A3,-0.4895
UUGGAGGUAGCGGAUAAGG,TAF5L,-0.78
UCCCUAAUCGUAAUUCUCC,CSNK1G3,0.1211
UUGUCAUUGAGCGCAAUGC,GAPDHS,-0.7259
AAAGAUACUCCUGCGAUCA,TRPV1,-0.6686
AUUCUUUCGAAAGUCUCUC,BCAP29,-1.631
UCUGGUAGCAGUUACGGAU,COX6B2,0.4186
AAAGUUCAUAGACCAGGCG,SCARF1,0.977
UUUCCGAUCAGUAGCGUAG,ATPAF1,-0.5443
AAAAGAGUCUGAUCCAACG,SMYD5,0.497
AUUAUCAGAAGAGUCAUCU,OR4L1,0.06527
AUCGGUGCUGUAAAUGACC,MYOC,-0.07866
AUAGCUGUCAUUCACCGCC,GRIN2A,-1.243
UGGUGUUCCAUGGGAAUCC,LOC729254,-0.1584
UACAUUUCCCAGUAGGACC,ARL9,0.2876
AUUGGAUUGGGUUCUAGAG,GIPC3,0.2907
UGACAUACACUUUCUUUCC,SAG,0.2326
AUUGUAACCAGAUGGAUCC,LIG1,-0.8116
UUAGCUGUGAGACGGUUGC,PYHIN1,-0.8539
UUGCAUAAAGUCACGAAGG,MSMB,-0.1374
UUCGAAGAAAGAAGGAACU,HARBI1,0.3584
UCAAGAACCAGUUUGGUGU,TMEM41A,-0.4765
UCUCUUGAUCCAGAUGUUC,EIF1AD,0.5712

Once more, the final 2:

- UCAAGAACCAGUUUGGUGU against TMEM41A : seed-corrected z-score -0.4765
- UCUCUUGAUCCAGAUGUUC against EIF1AD : seed-corrected z-score 0.5712